{"source": "paper PMC9323240", "molecules": {"B1": {"name": "HB27 in pGADT7 (yeast two-hybrid prey) (protein, UniProt Q9FMY7 1-242)", "chain": "MDEIKPKKEENSKRRRNVKPICRETGDHVHYLPTCKTKPKPTRTHHAPPPILDSIFKVTHKPHYYECRKNHAADIGTTAYDGCGEFVSSTGEEDSLNCAACGCHRNFHREELIPENGGVTETVLEVLKISSCQFRRIFCSPYGGGKSEGKKKKKEKESYGGDPIIKDRFGGAEEEEGIVKRLKTKFTAEQTEKMRDYAEKLRWKVRPERQEEVEEFCVEIGVNRKNFRIWMNNHKDKIIIDE"}, "B2": {"name": "HB27 fused to the N-terminal half of YFP (protein, UniProt Q9FMY7 1-242)", "chain": "B1 chain"}}, "key": {"[1]": {"target": "T1, HB27-HA (HB27-HA-pET28a protein) (Arabidopsis thaliana) (UniProt Q9FMY7)", "T1 sequence": "B1 chain", "experiment": "far-Western, overlay or dot blot; HB27-HA and BSA run on SDS-PAGE, blotted on PVDF, denatured and renatured in AC buffer; membrane incubated with 5 µg purified 2b-MYC in AC buffer without urea overnight at 4 °C; detected with anti-MYC antibody; both purified"}, "[2]": {"target": "Cucumber mosaic virus 2b protein in pGBKT7 (yeast two-hybrid bait) (Cucumber mosaic virus subgroup II)", "experiment": "two-hybrid; one-to-one, GAL4-based: HB27-pGADT7 with 2b-pGBKT7; dilution assay on SD/-LTHA at 30 °C, 5-7 days, and X-gal assay"}, "[3]": {"target": "CMV 2b protein fused to the C-terminal half of YFP (Cucumber mosaic virus subgroup II)", "experiment": "split reporter; BiFC in N. benthamiana leaf epidermal cells, agroinfiltrated together with P19; YFP read by confocal microscopy 48 h after infiltration"}}, "note": "Results are given in words; binding and its absence hold for the method and conditions named. A result given as binding can be weak or reduced; the word gives no strength. For part of these data: Tags and fused reporters may be left off the sequences shown. For part of these data: In cells and extracts the contact can be indirect."}
{"molecule": "CMV 2b-MYC (CMV2b-MYC-pET28a protein) (Cucumber mosaic virus subgroup II)", "values": [{"measurement": "binding", "setting": "[1]", "value": "binds"}]}
{"molecule": "B1", "values": [{"measurement": "binding", "setting": "[2]", "value": "binds"}]}
{"molecule": "B2", "values": [{"measurement": "binding", "setting": "[3]", "value": "binds"}]}
